Among all 71,000 compounds or so, about 310 (0.44%) were called active. The shares of active, inactive and inconclusive entries below differ from those in the screen. Calls come from the whole dose curve; as a rule, active = well fitted curve in either direction with a large enough effect; inconclusive = small, poorly fitted or top-dose-only effect, or another doubt; inactive = flat fitted curve, though single readings scatter. Where the call is inconclusive, the potency comes from a doubtful curve fit.
test system: Hsp90 C-terminal peptide / TPR2A (Hop) interaction, human; test: qHTS Assay for Disrupters of an Hsp90 Co-Chaperone Interaction; conditions: AlphaScreen TPR2A-His6 binding biotin-Hsp90 C-terminal peptide; activity change, negative = inhibition: at 57 µM (top of the series) unless noted
% is set by controls: 0 for no effect and ±100 for the full control effect; potency is the fitted concentration of half-maximal effect.

Compound | activity change, negative = inhibition | Potency
CCOCCO | inactive: -0.707% | –
Cc1ccc(/C(O)=C2/C(=O)C(=O)N(CCN3CCOCC3)C2c2ccccn2)cc1 (stereo unspecified) | – | inconclusive: 31.6 µM [inhibitor, single point]
COc1ccccc1CNc1ccc(N2CCCCC2)cc1 | – | inconclusive: 20 µM [inhibitor, partial curve]
CCCCN(C)c1nc(-c2ccco2)c2c(c1C#N)CC(C)(C)OC2 | – | active: 25.1 µM [activator]
O=C(c1cccc(F)c1)N1CCC2(CC1)CN(c1ncccn1)C2 | – | inconclusive: 39.8 µM [inhibitor, single point]
CC(=Nc1ccc(O)cc1)c1sc2ccccc2c1O | inactive: -17.7% | –
Cc1cc(N2CCCCC2)n2ncc(-c3ccc(Cl)cc3)c2n1 | – | active: 25.1 µM [activator]
COc1ccccc1CNc1nc(-c2cccc(C#N)c2)nc2ccccc12 | – | inconclusive: 25.1 µM [activator, single point]
CCn1c(=O)cc(OCC(=O)NCCCN2CCN(c3cccc(Cl)c3)CC2)c2ccccc21 | inconclusive: 20% | –
N#CCCN1CCN(C(=S)c2ccc(-c3ccc(Cl)c(Cl)c3)o2)CC1 | – | inconclusive: 15.8 µM [inhibitor, partial curve]
N#Cc1nc(-c2cccs2)oc1N1CCN(Cc2ccccc2)CC1 | – | inconclusive: 15.8 µM [inhibitor, partial curve]
N#Cc1nc(COc2ccc(F)cc2)oc1N1CCCC1 | – | inconclusive: 25.1 µM [inhibitor, single point]
CN(Cc1ccccc1)S(=O)(=O)c1ccc2[nH]cc(C(=O)NCC3CCCO3)c(=O)c2c1 (stereo unspecified) | inconclusive: 33.2% | –
COc1ncc2nc(-c3ccccc3)c(=O)n(C)c2n1 | inactive: -4.21% | –
CCOC(=O)c1cc2sccc2n1Cc1ccccc1 | inconclusive: 40.2% | –
COc1ccccc1-c1cc(C(F)(F)F)nc(N2CCOCC2)n1 | – | inconclusive: 25.1 µM [activator, single point]
Cn1c(=O)c2c(ncn2CC(=O)Nc2nnc(Cc3ccccc3)s2)n(C)c1=O | inconclusive: 51.4% | –
N#Cc1c(SCc2ccccc2)nc(N2CCOCC2)c2c1CCCC2 | – | inconclusive: 3.98 µM [activator, single point]
O=C(O)c1c[nH]c2cc(OCc3ccccc3)ccc2c1=O | inactive: -7.61% [at 11 µM] | –
O=C(O)[C@H]1C[C@H](C(=O)O)N1 | – | inconclusive: 31.6 µM [inhibitor, single point]
COc1ccc(-c2nc3oc4cc(OC)ccc4c(=O)c3c(=O)n2Cc2ccco2)cc1 | inconclusive: 41.9% | –
Cc1nnc(NCCN2CCOCC2)[nH]c1=O | inconclusive: 40.6% | –
Cc1onc(-c2ccccc2Cl)c1-c1nc(-c2ccccn2)no1 | inactive: 4.45% | –
CCn1c(=O)cc(SCC(=O)N2CCN(c3ccccn3)CC2)c2ccccc21 | inconclusive: 51.8% | –
COc1cc(OC)cc(-c2cc3nc4c(c(N5CCN(c6ncccn6)CC5)n3n2)CCCC4)c1 | inactive: 10.6% | –
CCN(CC)c1ccc(C2CC(=O)Nc3cc(OC)c(OC)cc32)cc1 (stereo unspecified) | – | inconclusive: 20 µM [inhibitor, partial curve]

Compound | activity change, negative = inhibition | Potency
O=C(O)CNC(=O)[C@H]1NC(C(F)(F)F)(C(F)(F)F)OC1(C(F)(F)F)C(F)(F)F | inactive: -2.39% [at 11 µM] | –
CCN(CC)c1ccc(NC(=O)c2[nH]c(C)c(C(C)=O)c2C)c(C)c1 | inconclusive: 30.8% | –
COCCN1C=C(C(=O)OC)C(c2cc(Br)c(OC)c(OC)c2)C(C(=O)OC)=C1 | – | inconclusive: 6.31 µM [activator, single point]
O=c1c(-c2ccc(F)cc2)nc2cnc(N3CCNCC3)nc2n1Cc1ccc(F)cc1 | inconclusive: 179% | –
COc1cccc(NC(=O)CCCn2c(=O)[nH]c3ccccc3c2=O)c1 | inconclusive: 54% | –
COc1ccc(-n2c(SCc3ccc(C#N)cc3)nnc2-c2ccccn2)cc1 | – | inconclusive: 25.1 µM [inhibitor, single point]
COC(=O)c1ccc(COC(=O)c2c(C)nn(Cc3ccccc3Cl)c2Cl)o1 | inconclusive: 170% | –
Cc1cc(C)c(C#N)c(SCC(=O)Nc2ccc(S(=O)(=O)Nc3onc(C)c3C)cc2)n1 | inconclusive: 47.7% | –
O=S(=O)(c1cnc[nH]1)N1CCc2ccccc21 | inconclusive: 48.5% | –
O=S(=O)(c1ccccc1)c1nc(-c2ccco2)oc1NCCCn1ccnc1 | – | inconclusive: 31.6 µM [inhibitor, single point]
CNc1nc(-c2ccoc2)nc2ccccc12 | inactive: -13.6% | –
COC(=O)c1ccc(OC)c(CSc2nnc(COc3ccc(Cl)cc3)o2)c1 | – | inconclusive: 39.8 µM [activator, single point]
CC1(C)C(=O)C(c2ccccc2)=C2CN3C(=O)N(CCc4ccccc4)C(=O)C3(Cc3ccc(C(F)(F)F)cc3)C=C21 (stereo unspecified) | inactive: -4.8% | –
CN(C)CCCN1C(=O)C(=O)/C(=C(/O)c2ccncc2)C1c1ccccc1 (stereo unspecified) | inconclusive: 45% | –
O=C1c2ccccc2NC(c2ccncc2)N1c1ccccn1 (stereo unspecified) | inactive: -0.168% | –
O=C(NCCc1ccc(Cl)cc1)c1ncn[nH]1 | – | inconclusive: 25.1 µM [inhibitor, partial curve]
Cc1ccc(-c2nc(NC(=O)CSc3nnc4scc(-c5ccccc5)n34)ns2)cc1 | inconclusive: 43.5% [at 2.3 µM] | –
O/N=C1/CCCCc2sccc21 | inconclusive: 47% | –
CCOC(=O)CC(=O)CSc1nc2ccc(C)cc2cc1C#N | inactive: -1.28% | –
CCOC(=O)c1cnc(-n2nc(C)cc2C)nc1N(CC)CC | – | inconclusive: 31.6 µM [inhibitor, single point]
CCN1c2ccccc2-c2nc3ccccc3n2C1c1ccncc1 (stereo unspecified) | inactive: 9.56% | –
CCCc1cc(N2CCCC2)n2nc(C)c(-c3ccccc3)c2n1 | – | inconclusive: 6.31 µM [activator, partial curve]
O=C(O)c1ccc(OC(F)(F)C(F)C(F)(F)F)cc1 (stereo unspecified) | inconclusive: 54.2% | –
CCOC(=O)C1=C(C)Nc2ncnn2C1c1ccc2c(c1)OCO2 (stereo unspecified) | inactive: -2.84% | –
CC(C)Cn1c(-c2cccs2)nc2nc3ccccc3nc21 | – | inconclusive: 25.1 µM [activator, single point]

Structures listed so far containing a COOH group (four):
Compound | activity change, negative = inhibition | Potency
O=C(O)c1c[nH]c2cc(OCc3ccccc3)ccc2c1=O | inactive: -7.61% [at 11 µM] | –
O=C(O)[C@H]1C[C@H](C(=O)O)N1 | – | inconclusive: 31.6 µM [inhibitor, single point]
O=C(O)CNC(=O)[C@H]1NC(C(F)(F)F)(C(F)(F)F)OC1(C(F)(F)F)C(F)(F)F | inactive: -2.39% [at 11 µM] | –
O=C(O)c1ccc(OC(F)(F)C(F)C(F)(F)F)cc1 (stereo unspecified) | inconclusive: 54.2% | –

Source: PubChem BioAssay AID595 (National Center for Advancing Translational Sciences (NCATS), 2007)
